Test results taken from doi:10.1101/2021.11.02.466974.
These are yes or no findings as the source states them, for the method shown. In cells and extracts the contact can be indirect. Some binding calls cover weakened binding; strength is not graded here.

Target: T1, endogenous FADD (mouse (endogenous in MEFs)) (UniProt Q61160)
T1 sequence: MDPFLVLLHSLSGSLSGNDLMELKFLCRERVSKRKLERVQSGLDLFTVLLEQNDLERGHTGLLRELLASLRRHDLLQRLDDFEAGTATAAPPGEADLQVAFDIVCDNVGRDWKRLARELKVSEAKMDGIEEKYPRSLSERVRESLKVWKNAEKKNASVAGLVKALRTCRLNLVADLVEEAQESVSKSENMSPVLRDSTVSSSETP
Test: co-IP

binding: binds
B1: endogenous mouse N4BP1 (NEDD4-binding protein 1) (protein, UniProt Q6A037 1-893)
chain: MAARVVLDEFTAPAEKAALLERSRGRIEALFGVGLAVLGALGAEEPLPARIWLQLRGAQEAVHSAKEYIKGICEPELEEKECYPKAMHCIFVGAQSLFLKSLIQDTCADLCVLDTGLLGIRGSAEAVVMARSHIQQFVKLFESNENLPSNQRESEIKREFRQFVEAHADSYTMDLLILPTSLKKELLSLTQGEESLFETDDDVITVGDVRPPEYTQSAATGPSSARDEVVVQEDSRNKARTPVSELTKHMDTVFSSSPDVLFVPVNGLSPDEDALSKDRVCHKRRSSDTEERHTKKQFSLENVPEGELLPDGKGSAGNEVIDLSDPASNSTNLSPDGKDTTEEMEYNILVNFFKTMGYSQEIVEKVIREYGPSTEPLLLLEEIEKENKRLQEDRDFPPCTVYPDASQSRNAGVGSTTNELTADSTPKKAQSHTEQSMVERFSQLPFKDSKHCTSNCKVNSFRTVPVGQKQEIWGSKQNSSCTVDLETDGHSASAASASPKDISFVSRGASGHQQRNPAFPENGFQQQTEPLLPNNTKPACEKRSGSCSSPQPKPNYPPLSPPLPLPQLLPSVTEARLGGSSDHIDSSVTGVQRFRDTLKIPYKLELKNEPGRADLKHIVIDGSNVAITHGLKKFFSCRGIAIAVEYFWKLGNRNITVFVPQWRTRRDPNITEQHFLTQLQELGILSLTPARMVFGERIASHDDRFLLHLADKTGGIIVTNDNFREFVTESVSWREIITKRLLQYTFVGDIFMVPDDPLGRNGPRLEEFLRKEAFLRHMQPLLNALPSVGTFDPGFRSPSTQVANNSHQPPPRIQTSSSPWLPQQSHFTALATLPSMQQNPPLPAQRSSAETSELREALLKIFPDSEQKLKIDQILAAHPYMKDLNALSALVLD
